Measured values: PubChem BioAssay AID1671190 (National Center for Advancing Translational Sciences (NCATS), 2021)
The campaign covered roughly 580,000 compounds. About 6,100 (1.1%) were called active. Inconclusive means that the source gave no clear call. Such entries were picked first, then a sample of the others. Calls follow the shape of the dose curve; as a rule, active = well fitted inhibition curve with a large enough effect; inconclusive = small, poorly fitted or top-dose-only effect, or another doubt; inactive = no such curve, though single readings can be large or run the other way. Where the call is inconclusive, the potency comes from a doubtful curve fit.

Protein sequences, listed by entry. Tags and fused reporters are not part of them. Lines headed by an entry give the natural chain unless they say otherwise; changes in a name come on top.
UniProt P18054: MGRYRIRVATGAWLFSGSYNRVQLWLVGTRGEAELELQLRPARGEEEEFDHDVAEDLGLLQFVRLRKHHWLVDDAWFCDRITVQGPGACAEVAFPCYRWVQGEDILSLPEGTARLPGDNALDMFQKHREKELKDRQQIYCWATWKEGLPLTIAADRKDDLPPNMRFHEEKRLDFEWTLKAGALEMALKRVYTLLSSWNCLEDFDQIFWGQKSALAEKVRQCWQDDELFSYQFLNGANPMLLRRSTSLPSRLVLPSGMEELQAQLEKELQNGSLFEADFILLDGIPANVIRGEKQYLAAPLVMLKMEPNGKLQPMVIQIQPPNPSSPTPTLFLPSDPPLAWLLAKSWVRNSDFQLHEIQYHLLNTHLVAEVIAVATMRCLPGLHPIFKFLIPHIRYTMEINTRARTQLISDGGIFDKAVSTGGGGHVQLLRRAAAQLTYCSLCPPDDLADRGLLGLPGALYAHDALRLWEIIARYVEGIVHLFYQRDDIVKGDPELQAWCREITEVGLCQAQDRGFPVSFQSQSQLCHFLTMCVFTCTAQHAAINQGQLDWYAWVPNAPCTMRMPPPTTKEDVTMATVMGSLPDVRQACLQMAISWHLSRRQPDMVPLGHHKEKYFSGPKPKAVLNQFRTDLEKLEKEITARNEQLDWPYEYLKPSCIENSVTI

What follows are compounds tested against Polyunsaturated fatty acid lipoxygenase ALOX12 (Homo sapiens) (UniProt P18054) (assay: Primary qHTS assay for inhibitors of human arachidonate 12S-lipoxygenase (ALOX12): Round 2). Conditions: purified 12hLO, xylenol orange hydroperoxide absorbance; activity change, negative = inhibition: at 108 µM (top of the series) unless noted.
Procedure, shortened: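 Purified human 12hLO (150 nM final) in 25 mM Hepes, 0.01% Triton X-100, pH 7.0 was preincubated 15 min at room temperature with compound. Then 40 uM arachidonic acid was added, 30 min. Hydroperoxide was read by Fe-XO absorbance ratio 573/405 nm.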
% is scaled to controls: 0 for no effect and ±100 for the full control effect; potency is read from the fitted curve at half-maximal effect.

Structure (SMILES)	Potency	activity change, negative = inhibition
O=C(NC1CCCCC1)C(c1ccncc1)N(Cc1ccc2c(c1)OCO2)C(=O)C(F)(F)F (configuration not stated)	inconclusive: 25.1 µM [inhibitor, single point]	–
COC(=O)c1c(C)[nH]c(C(=O)C(C)OC(=O)c2ccc(F)cc2F)c1C (configuration not stated)	–	inactive: 7.88%
COc1ccccc1C1Nc2cccc3cccc(c23)N1	inconclusive: 35.5 µM [inhibitor, partial curve, poor fit]	–
O=C(O)c1ccc(CNCC(O)c2ccccc2)cc1 (configuration not stated)	inconclusive: 31.6 µM [inhibitor, partial curve, poor fit]	–
Cc1cc(S(=O)(=O)N2CCN(CC(=O)N(C)Cc3ccccc3)CC2)ccc1Br	inconclusive: 56.2 µM [inhibitor, partial curve, poor fit]	–
COc1cccc(-c2cnc3c(NC=O)cc(-c4ccoc4)cn23)c1	inconclusive: 14.1 µM [inhibitor, partial curve, poor fit]	–
Cc1ccc(C)c(N2CCN(C(=O)CCCCCn3c(=S)[nH]c4ccc(N5CCOCC5)cc4c3=O)CC2)c1	inconclusive: 50.1 µM [inhibitor, partial curve, poor fit]	–
COCCn1c(C)cnc1CCNC(=O)c1ccc(OC)nc1	–	inactive: 52.7%
CCC(C)NCCOc1ccccc1C (configuration not stated)	inconclusive: 0.708 µM [inhibitor, full curve, poor fit]	–
O=C(O)C1CCCN(S(=O)(=O)c2ccccc2[N+](=O)[O-])C1 (configuration not stated)	inconclusive: 0.355 µM [inhibitor, full curve, poor fit]	–
Cn1ncn2c(=O)c3c(nc12)-c1ccccc1CC31CCCC1	–	inactive: -20.4%
O=C(O)C(c1c[nH]c2ccc(OCc3ccccc3)cc12)N1CCN(CCOCCO)CC1 (configuration not stated)	inconclusive: 12.6 µM [inhibitor, full curve, poor fit]	–
O=C(O)Cn1cc(C(C(=O)O)N2CCN(c3ccccc3)CC2)c2ccc(F)cc21 (configuration not stated)	inconclusive: 39.8 µM [inhibitor, partial curve, poor fit]	–
CN(Cc1ccccc1)C1CCN(Cc2ccc(Cl)cc2)CC1	inconclusive: 0.501 µM [inhibitor, full curve, poor fit]	–
Cc1ccc(C)c(S(=O)(=O)c2cnc(SCC(=O)Nc3ccc(F)cc3F)[nH]c2=O)c1	inconclusive: 50.1 µM [inhibitor, partial curve, poor fit]	–
Cc1ccsc1CN(Cc1ccc(CN(C)S(C)(=O)=O)o1)CC(C)C	–	inactive: 37%
Cc1ccc(-c2cc(Nc3cccc(C(=O)N(C)Cc4ccccc4)c3)ncn2)cc1	–	inconclusive: -30.9% [inhibitor]
O=C(Nc1cccc(C(=O)N2CCN(c3ccccc3)CC2)c1)C1=CSCCO1	–	inactive: -5.01%
CC(=O)c1cccc(NC(=O)C2Cc3c(-c4ccccc4)ccnc3O2)c1 (configuration not stated)	inconclusive: 89.1 µM [inhibitor, partial curve, poor fit]	–
CCCCNC1c2ccccc2C(=O)N1Cc1ccccc1 (configuration not stated)	active: 39.8 µM	–
CN1CCN(c2ccc(-c3nccc4c(=O)cc(N5CCOCC5)oc34)cn2)CC1	inconclusive: 12.6 µM [inhibitor, full curve, poor fit]	–
O=C(O)c1ccc(=O)oc1	inconclusive: 50.1 µM [inhibitor, partial curve, poor fit]	–
Cc1cc(C)c(C(=O)COC(=O)c2ccc(-c3ccccc3)cc2)c(C)c1	inconclusive: 3.16 µM [inhibitor, full curve, poor fit]	–

Structure (SMILES)	Potency	activity change, negative = inhibition
Cc1ccc(C)c(-c2csc(-c3c(N)c(C(=O)c4ccc5c(c4)OCO5)n4ccccc34)n2)c1	inconclusive: 100 µM [inhibitor, partial curve, poor fit]	–
Cc1cc2nc(-c3ccco3)c(Cc3cccc(F)c3)n2c(C)c1Br	active: 11.2 µM	–
C#CCN1CCCCC1C(=O)NCCc1ccccc1 (configuration not stated)	–	inactive: -10%
CN(C)Cc1nnc(C2CC(NC(=O)c3ccc4scnc4c3)C2)n1C (configuration not stated)	inconclusive: 8.91 µM [inhibitor, full curve]	–
O=C(c1ccc(F)cc1)N1C[C@@H]2C[C@H](C1)c1c(NS(=O)(=O)c3cccc(F)c3)ccc(=O)n1C2	inconclusive: 31.6 µM [inhibitor, single point]	–
COc1ccc2oc(-c3ccccc3)cc(=O)c2c1	–	inactive: 41.2%
Cc1ccc2nc(N(Cc3cccnc3)C(=O)C3CCCCC3)sc2c1	–	inactive: 5.18%
O=C(O)c1ccc(-c2ncc[nH]2)cc1	–	inactive: -22.1%
C=CCN1C(=O)C2(OCCCO2)c2ccccc21	inconclusive: 89.1 µM [inhibitor, partial curve, poor fit]	–
CCN(Cc1ccccc1)C(=O)C1CCN(C/C(C)=C/c2ccccc2)CC1	inconclusive: 28.2 µM [inhibitor, partial curve]	–
CCOc1ccccc1NC1=NCC(=O)N1Cc1ccc(F)cc1	inconclusive: 4.47 µM [inhibitor, full curve, poor fit]	–
CC(C)NC(=O)c1nc(-c2ccc(Cl)cc2Cl)c2ccccn12	–	inactive: -2.42% [at 6.33 µM]
CCN(CC)S(=O)(=O)c1ccc(C(=O)/C=C/c2ccc(-c3ccc([N+](=O)[O-])cc3)o2)cc1	–	inactive: 7.47%
CCC12CN3CC(C)(CN(C1)C3c1c[nH]c3ccccc13)C2=O (configuration not stated)	–	inactive: 5.03%
CC(=O)c1c(C)[nH]c(C(=O)NCCc2ccc(F)cc2)c1C	inconclusive: 89.1 µM [inhibitor, partial curve, poor fit]	–
O=[N+]([O-])c1cc(/C=N/N2CCCCC2)ccc1Cl	inconclusive: 31.6 µM [inhibitor, partial curve]	–
Cc1noc(C)c1[S+](=O)([O-])N1CCC2(CC1)OCCN(Cc1ccccc1)C2=O	–	inactive: 16.7% [at 176 µM]
CN(c1ccccc1)S(=O)(=O)c1cccc(C(=O)N2CCN(c3ncccn3)CC2)c1	–	inactive: 11.5%
COc1ccc(C(=O)N(CCc2ccccc2)Cc2cccs2)c(OC)c1	inconclusive: 50.1 µM [inhibitor, partial curve, poor fit]	–
CC(=O)c1c(C)[nH]c(C(=O)Nc2nc(-c3ccc(-c4ccccc4)cc3)cs2)c1C	–	inactive: -4.44%
CCOC(=O)C1CCN(C(=O)C2(NC(=O)Nc3ccccc3C)CCCCC2)CC1	–	inconclusive: -31.1% [inhibitor]
Cc1cccc(NC(=O)NCc2c(C)nn(C)c2C)c1C	–	inactive: -22.8%
Cn1c(=O)[nH]c(=O)c2c1nc(SCC(=O)O)n2Cc1ccccc1	–	inactive: -34.3%

Structure (SMILES)	Potency	activity change, negative = inhibition
O=S(=O)(c1ccc(N2CCC(c3ccc(Cl)cc3)=N2)cc1)N(CCO)CCO	–	inconclusive: -33.4% [inhibitor]
CC(=O)Nc1ccc(NC(=O)COc2ccc(-c3ccc(C#N)cc3)cc2)cc1	inconclusive: 56.2 µM [inhibitor, partial curve, poor fit]	–
O=S(=O)(c1ccc2[nH]c3c(c2c1)CCCC3)N1CCCCC1	–	inactive: 20.1%
O=C(N1CCOCC1)N1CCCC(c2nnc3n2CCNC3)C1 (configuration not stated)	inconclusive: 3.98 µM [inhibitor, full curve, poor fit]	–
CCc1cnc(N2CCC(COc3ccc4c(cnn4CC[S+](C)(=O)[O-])c3)CC2)nc1	–	inactive: 8.4%
CC(C)CN1C(=O)/C(=C/c2cccs2)NC1=S	inconclusive: 39.8 µM [inhibitor, partial curve]	–
Cc1ccc(-c2nnc(SCC(=O)N/N=C/c3ccccc3C(=O)O)n2-c2ccccc2)cc1	–	inactive: -4.86%
COc1cccc(C=Nc2ccccc2C(=O)Nc2ccccc2)c1O	inconclusive: 70.8 µM [inhibitor, partial curve, poor fit]	–
Cc1ccc(CNC(=O)CSc2nnc3ccc(-c4ccc5c(c4)OCO5)nn23)cc1	inconclusive: 39.8 µM [inhibitor, partial curve, poor fit]	–
CC(OC(=O)C1=COCCO1)C(=O)Nc1ccc(N2CCOCC2)cc1 (configuration not stated)	–	inactive: -16.6%
CC1CCN(c2ccc([N+](=O)[O-])c(SCCO)c2)CC1	inconclusive: 141 µM [inhibitor, single point]	–
COc1cc(/C=C(/C#N)C(=O)OC(C)C)cc(Cl)c1OC	inconclusive: 0.0794 µM [inhibitor, full curve, poor fit]	–
Fc1ccc(-c2n[nH]c(=S)n2-c2ccc3c(c2)OCCO3)cc1	inconclusive: 44.7 µM [inhibitor, partial curve, poor fit]	–
COC(=O)c1cc2n(n1)CCN(C(=O)Cc1[nH]nc3ccccc13)C2	inconclusive: 20 µM [inhibitor, full curve]	–
CCC[C@@H]1NC(=O)CNC(=O)[C@H](Cc2ccccc2)NC(=O)[C@H]([C@H](C)O)NC(=O)[C@H](CCC(N)=O)NC(=O)C(C(C)C(C)Cl)NC(=O)[C@H](CC(C)C)N(C)C(=O)[C@H](C)NC(=O)CC(O)C(NC(=O)[C@@H](CC(C)C)NC=O)C(C)OC1=O (some centres not stated)	inconclusive: 44.7 µM [inhibitor, partial curve, poor fit]	–
Clc1ccccc1OCCCCN1CCNCC1	inconclusive: 0.355 µM [inhibitor, full curve, poor fit]	–
CCCCNC(=O)C1CCN(c2nc(OC)nc(OC)n2)CC1	–	inactive: 3.03%
O=C(O)CCCCCCCCc1cn(CC2CCCCC2)nn1	inconclusive: 50.1 µM [inhibitor, partial curve, poor fit]	–
O=C(/C=C/c1ccc(Br)o1)NCc1ccccc1	–	inactive: 0.0826%
CCCCCCCCOC(=O)c1c(CSC(=N)N)n(C)c2cc(Br)c(OC(C)=O)cc12	inconclusive: 39.8 µM [inhibitor, partial curve, poor fit]	–
COc1ccccc1NC(=O)Cc1nn(C)c(=O)c2ccccc12	inconclusive: 126 µM [inhibitor, single point]	–

Quoted at random: five entries already listed, in no set order.
Structure (SMILES)	Potency	activity change, negative = inhibition
Cc1ccc(-c2nnc(SCC(=O)N/N=C/c3ccccc3C(=O)O)n2-c2ccccc2)cc1	–	inactive: -4.86%
COC(=O)c1c(C)[nH]c(C(=O)C(C)OC(=O)c2ccc(F)cc2F)c1C (configuration not stated)	–	inactive: 7.88%
Cc1ccc(C)c(N2CCN(C(=O)CCCCCn3c(=S)[nH]c4ccc(N5CCOCC5)cc4c3=O)CC2)c1	inconclusive: 50.1 µM [inhibitor, partial curve, poor fit]	–
CCCCNC(=O)C1CCN(c2nc(OC)nc(OC)n2)CC1	–	inactive: 3.03%
COc1ccccc1C1Nc2cccc3cccc(c23)N1	inconclusive: 35.5 µM [inhibitor, partial curve, poor fit]	–
